Experimental data from PMC7540616.
These are yes or no findings as the source states them, for the method shown. Binding seen in cells or lysates may run through a third protein. Some entries that bind do so weakly or less than the wild type. Where a sequence is shown, tags or fusion partners need not be part of it.

Sequences of proteins named here, by UniProt entry; tags and fusion partners are left off.
UniProt Q640Z6: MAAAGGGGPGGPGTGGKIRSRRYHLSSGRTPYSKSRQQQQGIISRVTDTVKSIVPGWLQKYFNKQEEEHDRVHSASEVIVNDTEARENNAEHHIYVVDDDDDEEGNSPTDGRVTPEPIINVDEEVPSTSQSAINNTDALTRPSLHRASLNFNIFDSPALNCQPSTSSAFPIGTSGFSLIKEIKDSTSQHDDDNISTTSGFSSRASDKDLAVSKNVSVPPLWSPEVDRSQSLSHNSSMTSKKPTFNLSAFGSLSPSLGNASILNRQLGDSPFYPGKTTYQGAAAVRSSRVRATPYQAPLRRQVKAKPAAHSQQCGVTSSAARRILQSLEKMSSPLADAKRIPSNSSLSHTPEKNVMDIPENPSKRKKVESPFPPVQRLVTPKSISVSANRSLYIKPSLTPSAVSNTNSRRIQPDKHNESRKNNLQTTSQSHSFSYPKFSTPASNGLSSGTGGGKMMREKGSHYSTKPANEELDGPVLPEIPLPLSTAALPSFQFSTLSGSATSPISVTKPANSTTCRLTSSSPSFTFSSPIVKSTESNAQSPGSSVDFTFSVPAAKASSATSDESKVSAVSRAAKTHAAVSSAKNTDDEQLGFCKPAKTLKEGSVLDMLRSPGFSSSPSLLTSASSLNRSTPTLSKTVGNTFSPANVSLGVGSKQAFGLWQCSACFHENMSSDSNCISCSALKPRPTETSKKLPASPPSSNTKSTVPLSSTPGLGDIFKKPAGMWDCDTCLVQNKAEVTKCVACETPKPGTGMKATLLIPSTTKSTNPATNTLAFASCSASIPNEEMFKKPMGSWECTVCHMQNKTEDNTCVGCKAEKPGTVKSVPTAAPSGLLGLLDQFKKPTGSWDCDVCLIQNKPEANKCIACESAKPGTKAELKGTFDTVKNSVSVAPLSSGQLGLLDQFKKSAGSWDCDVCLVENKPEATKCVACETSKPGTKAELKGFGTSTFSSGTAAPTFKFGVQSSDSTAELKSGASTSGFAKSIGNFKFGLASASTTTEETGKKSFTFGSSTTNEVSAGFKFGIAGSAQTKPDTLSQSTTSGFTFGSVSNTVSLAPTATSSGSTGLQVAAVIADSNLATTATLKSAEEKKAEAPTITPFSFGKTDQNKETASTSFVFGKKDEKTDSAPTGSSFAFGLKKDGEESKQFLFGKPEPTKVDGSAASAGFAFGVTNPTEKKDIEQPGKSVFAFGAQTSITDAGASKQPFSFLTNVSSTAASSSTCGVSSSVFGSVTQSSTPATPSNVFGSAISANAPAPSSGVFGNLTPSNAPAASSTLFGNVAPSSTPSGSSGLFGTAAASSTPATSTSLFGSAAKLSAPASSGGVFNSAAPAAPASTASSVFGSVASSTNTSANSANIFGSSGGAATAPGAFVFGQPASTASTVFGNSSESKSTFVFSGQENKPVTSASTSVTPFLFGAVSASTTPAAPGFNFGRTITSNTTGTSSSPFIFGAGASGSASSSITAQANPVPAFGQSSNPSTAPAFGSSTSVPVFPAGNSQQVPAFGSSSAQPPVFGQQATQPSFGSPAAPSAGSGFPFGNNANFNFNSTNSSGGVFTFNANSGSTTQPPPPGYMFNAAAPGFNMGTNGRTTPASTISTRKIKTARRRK

Biological target: T1, GST-hExportin-t (human (from the prefix h in hExportin-t)) (UniProt O43592)
T1 sequence: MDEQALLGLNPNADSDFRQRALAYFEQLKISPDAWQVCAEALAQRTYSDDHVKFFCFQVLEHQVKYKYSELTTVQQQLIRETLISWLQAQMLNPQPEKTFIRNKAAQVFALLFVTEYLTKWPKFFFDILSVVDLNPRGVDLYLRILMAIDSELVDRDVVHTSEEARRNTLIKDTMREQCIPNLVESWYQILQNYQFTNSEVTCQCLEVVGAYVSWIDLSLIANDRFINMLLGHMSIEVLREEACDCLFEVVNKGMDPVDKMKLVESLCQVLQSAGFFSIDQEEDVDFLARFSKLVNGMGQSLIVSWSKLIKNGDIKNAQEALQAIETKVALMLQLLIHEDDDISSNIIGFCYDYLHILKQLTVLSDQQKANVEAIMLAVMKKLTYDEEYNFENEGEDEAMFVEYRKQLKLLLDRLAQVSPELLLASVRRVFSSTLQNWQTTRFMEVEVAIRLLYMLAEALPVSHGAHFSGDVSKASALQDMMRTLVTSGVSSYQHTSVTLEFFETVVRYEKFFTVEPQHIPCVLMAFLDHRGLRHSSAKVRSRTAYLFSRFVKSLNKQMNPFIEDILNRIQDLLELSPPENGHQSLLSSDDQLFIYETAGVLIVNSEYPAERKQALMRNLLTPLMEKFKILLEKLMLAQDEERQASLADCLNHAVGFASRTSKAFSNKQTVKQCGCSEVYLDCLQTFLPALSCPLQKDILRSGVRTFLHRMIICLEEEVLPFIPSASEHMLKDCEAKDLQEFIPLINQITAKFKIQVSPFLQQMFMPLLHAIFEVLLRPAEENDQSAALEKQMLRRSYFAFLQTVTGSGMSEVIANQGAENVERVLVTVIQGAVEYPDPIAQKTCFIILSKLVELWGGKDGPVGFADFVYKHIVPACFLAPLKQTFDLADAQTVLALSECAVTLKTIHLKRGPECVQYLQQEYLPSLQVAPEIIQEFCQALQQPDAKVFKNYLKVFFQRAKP
Assay: pull-down; GST, GST-xCrm1 or GST-hExportin-t (50 ug) on BSA-blocked glutathione agarose beads; 25 uL interphase Xenopus egg extract in 500 uL PBS, 4 C, 2 h, with or without 100 ug 6xHis-RanQ69L-GTP; washed with PBS+0.2% NP-40 then PBS; immunoblot (mAb414, anti-Nup133, anti-Nup98); only the target purified

binding: binds
Substance: Nup153 (from UniProt Q640Z6 1-1605)
